For one molecule, binding results are on record in PMC7455706.

Results are given in words; binding and its absence hold for the method and conditions named. Binding seen in cells or lysates may run through a third protein. Some entries that bind do so weakly or less than the wild type.

The target of the assay is T1, PP4 regulatory subunit PP4R2 (human (endogenous in HCT116)) (UniProt Q9NY27).
T1 sequence: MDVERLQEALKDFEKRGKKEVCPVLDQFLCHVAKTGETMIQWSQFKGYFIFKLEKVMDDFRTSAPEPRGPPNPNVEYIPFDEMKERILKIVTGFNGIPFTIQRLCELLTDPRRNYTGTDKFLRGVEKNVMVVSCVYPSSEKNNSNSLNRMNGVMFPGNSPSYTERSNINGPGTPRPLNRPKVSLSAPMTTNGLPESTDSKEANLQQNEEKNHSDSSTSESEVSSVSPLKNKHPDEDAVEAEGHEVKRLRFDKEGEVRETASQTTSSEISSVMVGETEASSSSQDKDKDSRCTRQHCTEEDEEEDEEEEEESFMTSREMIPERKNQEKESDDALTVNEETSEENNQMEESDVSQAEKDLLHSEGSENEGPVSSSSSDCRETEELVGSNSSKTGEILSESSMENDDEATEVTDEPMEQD
As to the kind of experiment: co-IP; anti-PP4R2 or anti-PP4C immunoprecipitation from 2 mg HCT116 whole-cell extract in RIPA buffer (4 h, 4 °C; Protein G Sepharose), immunoblot; cells mock treated (DMSO) or pretreated with NVP-2 or RO-3306 for 1 h. Background: Immunoblotting shows a protein as a band on a membrane.

B1: PP4C (catalytic subunit of protein phosphatase 4) (enzyme, UniProt P60510 1-307)
chain: MAEISDLDRQIEQLRRCELIKESEVKALCAKAREILVEESNVQRVDSPVTVCGDIHGQFYDLKELFRVGGDVPETNYLFMGDFVDRGFYSVETFLLLLALKVRYPDRITLIRGNHESRQITQVYGFYDECLRKYGSVTVWRYCTEIFDYLSLSAIIDGKIFCVHGGLSPSIQTLDQIRTIDRKQEVPHDGPMCDLLWSDPEDTTGWGVSPRGAGYLFGSDVVAQFNAANDIDMICRAHQLVMEGYKWHFNETVLTVWSAPNYCYRCGNVAAILELDEHLQKDFIIFEAAPQETRGIPSKKPVADYFL
Regarding B1, the binding entry is reported as “binds”.
